Measurements: patent EP0607129B1, “METHYLPIPERAZINOAZEPINE DERIVATIVES, THEIR PREPARATION AND USE” ("THERABEL RESEARCH SA/NV", priority 1991, dated 1993)

Tested on: récepteurs muscariniques
Design: species or system rat CFY
Conditions: 1,5 nM (³H) QNB; rat brain homogenate without cerebellum; 25°C, 60 minutes; non-specific binding with atropine 10⁻⁵M; test concentration not given

## O=C(CCCN1CCC(O)(c2ccc(Cl)cc2)CC1)c1ccc(F)cc1 [Halopéridol, reference compound]
  Inhibition, % (binding de ³H QNB): 0%
